Test results: the supplement of paper PMC12067093, “Discovery and optimisation of a covalent ligand for TRIM25 and its application to targeted protein ubiquitination” (Chemical Science, 2025)
The other results are listed elsewhere or left out.

Sequences of proteins named here, by UniProt entry; tags and fusion partners are left off. A change or cut given only in a name is not applied to a line headed by its entry.
UniProt Q9NQW7: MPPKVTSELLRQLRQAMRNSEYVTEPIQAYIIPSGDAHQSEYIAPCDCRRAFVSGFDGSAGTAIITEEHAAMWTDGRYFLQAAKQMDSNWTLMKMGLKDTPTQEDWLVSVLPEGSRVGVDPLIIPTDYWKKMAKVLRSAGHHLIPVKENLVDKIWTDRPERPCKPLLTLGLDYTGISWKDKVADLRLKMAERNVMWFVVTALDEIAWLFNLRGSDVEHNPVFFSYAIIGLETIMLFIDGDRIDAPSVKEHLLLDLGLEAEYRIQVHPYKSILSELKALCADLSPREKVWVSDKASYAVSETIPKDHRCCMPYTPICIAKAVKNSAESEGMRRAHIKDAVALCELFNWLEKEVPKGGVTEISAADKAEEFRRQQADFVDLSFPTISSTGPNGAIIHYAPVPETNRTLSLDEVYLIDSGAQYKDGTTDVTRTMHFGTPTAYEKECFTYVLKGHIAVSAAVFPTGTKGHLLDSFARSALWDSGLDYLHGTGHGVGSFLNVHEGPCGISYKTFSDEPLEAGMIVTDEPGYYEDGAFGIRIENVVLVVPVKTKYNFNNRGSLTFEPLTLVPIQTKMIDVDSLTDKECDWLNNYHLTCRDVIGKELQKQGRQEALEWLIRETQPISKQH
UniProt Q6UXN9, whole entry, looked up: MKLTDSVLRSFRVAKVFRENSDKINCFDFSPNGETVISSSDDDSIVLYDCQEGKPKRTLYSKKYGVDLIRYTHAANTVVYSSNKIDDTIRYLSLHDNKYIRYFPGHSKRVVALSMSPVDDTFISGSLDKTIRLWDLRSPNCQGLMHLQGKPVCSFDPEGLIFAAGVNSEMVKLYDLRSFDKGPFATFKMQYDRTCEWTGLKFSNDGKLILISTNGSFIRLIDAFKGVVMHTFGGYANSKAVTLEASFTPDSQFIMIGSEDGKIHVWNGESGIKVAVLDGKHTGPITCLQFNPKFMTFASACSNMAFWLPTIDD
UniProt Q15061: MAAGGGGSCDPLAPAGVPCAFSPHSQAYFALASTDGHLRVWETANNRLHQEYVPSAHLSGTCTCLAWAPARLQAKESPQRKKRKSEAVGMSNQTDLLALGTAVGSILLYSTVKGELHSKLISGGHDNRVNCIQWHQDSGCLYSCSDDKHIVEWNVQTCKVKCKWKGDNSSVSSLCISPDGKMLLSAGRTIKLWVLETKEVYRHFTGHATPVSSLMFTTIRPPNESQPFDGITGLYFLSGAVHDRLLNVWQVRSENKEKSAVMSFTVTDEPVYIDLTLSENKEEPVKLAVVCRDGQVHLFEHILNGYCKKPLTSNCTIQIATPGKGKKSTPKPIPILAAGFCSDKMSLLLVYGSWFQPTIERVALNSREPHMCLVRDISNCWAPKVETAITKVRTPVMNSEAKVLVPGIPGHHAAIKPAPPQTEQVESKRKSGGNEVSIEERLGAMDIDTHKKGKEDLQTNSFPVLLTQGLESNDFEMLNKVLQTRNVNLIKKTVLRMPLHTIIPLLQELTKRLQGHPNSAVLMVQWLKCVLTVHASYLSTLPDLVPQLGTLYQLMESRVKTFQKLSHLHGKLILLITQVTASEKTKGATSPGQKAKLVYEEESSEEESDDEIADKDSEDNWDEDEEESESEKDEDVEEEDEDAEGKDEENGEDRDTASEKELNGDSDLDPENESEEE
UniProt P23381: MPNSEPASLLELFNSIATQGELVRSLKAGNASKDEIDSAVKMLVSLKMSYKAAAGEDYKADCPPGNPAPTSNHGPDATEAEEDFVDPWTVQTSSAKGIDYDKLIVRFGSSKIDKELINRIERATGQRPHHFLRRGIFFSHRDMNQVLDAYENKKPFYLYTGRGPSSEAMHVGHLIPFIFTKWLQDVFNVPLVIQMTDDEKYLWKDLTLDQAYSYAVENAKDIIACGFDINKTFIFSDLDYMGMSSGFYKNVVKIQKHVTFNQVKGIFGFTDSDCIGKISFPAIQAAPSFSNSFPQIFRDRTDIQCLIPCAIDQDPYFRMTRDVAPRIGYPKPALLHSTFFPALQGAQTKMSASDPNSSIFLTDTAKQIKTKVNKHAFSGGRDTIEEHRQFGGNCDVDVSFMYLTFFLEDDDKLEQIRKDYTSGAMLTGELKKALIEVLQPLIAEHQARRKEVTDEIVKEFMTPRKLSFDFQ
UniProt Q8IWA0: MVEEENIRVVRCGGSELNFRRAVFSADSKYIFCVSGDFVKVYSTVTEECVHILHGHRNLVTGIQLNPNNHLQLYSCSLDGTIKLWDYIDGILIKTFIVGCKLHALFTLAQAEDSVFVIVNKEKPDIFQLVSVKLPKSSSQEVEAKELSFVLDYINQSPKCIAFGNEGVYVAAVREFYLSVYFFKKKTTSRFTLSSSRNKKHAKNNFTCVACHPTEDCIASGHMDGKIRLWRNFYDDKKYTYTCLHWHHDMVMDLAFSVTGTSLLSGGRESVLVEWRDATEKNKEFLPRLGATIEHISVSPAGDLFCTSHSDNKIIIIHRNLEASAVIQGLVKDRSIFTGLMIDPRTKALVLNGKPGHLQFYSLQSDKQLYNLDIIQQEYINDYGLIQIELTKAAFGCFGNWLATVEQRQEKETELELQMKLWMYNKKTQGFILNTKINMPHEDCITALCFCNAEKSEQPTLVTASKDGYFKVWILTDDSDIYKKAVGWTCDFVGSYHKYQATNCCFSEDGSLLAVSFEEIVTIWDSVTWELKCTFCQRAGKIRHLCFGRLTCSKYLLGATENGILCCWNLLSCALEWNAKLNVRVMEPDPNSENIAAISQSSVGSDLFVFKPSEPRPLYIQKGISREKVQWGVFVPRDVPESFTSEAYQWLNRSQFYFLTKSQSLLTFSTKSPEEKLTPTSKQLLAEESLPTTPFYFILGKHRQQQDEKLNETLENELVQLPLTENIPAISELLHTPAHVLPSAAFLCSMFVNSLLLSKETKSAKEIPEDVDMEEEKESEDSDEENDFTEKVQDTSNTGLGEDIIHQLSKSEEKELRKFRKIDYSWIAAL
UniProt Q9H4A3: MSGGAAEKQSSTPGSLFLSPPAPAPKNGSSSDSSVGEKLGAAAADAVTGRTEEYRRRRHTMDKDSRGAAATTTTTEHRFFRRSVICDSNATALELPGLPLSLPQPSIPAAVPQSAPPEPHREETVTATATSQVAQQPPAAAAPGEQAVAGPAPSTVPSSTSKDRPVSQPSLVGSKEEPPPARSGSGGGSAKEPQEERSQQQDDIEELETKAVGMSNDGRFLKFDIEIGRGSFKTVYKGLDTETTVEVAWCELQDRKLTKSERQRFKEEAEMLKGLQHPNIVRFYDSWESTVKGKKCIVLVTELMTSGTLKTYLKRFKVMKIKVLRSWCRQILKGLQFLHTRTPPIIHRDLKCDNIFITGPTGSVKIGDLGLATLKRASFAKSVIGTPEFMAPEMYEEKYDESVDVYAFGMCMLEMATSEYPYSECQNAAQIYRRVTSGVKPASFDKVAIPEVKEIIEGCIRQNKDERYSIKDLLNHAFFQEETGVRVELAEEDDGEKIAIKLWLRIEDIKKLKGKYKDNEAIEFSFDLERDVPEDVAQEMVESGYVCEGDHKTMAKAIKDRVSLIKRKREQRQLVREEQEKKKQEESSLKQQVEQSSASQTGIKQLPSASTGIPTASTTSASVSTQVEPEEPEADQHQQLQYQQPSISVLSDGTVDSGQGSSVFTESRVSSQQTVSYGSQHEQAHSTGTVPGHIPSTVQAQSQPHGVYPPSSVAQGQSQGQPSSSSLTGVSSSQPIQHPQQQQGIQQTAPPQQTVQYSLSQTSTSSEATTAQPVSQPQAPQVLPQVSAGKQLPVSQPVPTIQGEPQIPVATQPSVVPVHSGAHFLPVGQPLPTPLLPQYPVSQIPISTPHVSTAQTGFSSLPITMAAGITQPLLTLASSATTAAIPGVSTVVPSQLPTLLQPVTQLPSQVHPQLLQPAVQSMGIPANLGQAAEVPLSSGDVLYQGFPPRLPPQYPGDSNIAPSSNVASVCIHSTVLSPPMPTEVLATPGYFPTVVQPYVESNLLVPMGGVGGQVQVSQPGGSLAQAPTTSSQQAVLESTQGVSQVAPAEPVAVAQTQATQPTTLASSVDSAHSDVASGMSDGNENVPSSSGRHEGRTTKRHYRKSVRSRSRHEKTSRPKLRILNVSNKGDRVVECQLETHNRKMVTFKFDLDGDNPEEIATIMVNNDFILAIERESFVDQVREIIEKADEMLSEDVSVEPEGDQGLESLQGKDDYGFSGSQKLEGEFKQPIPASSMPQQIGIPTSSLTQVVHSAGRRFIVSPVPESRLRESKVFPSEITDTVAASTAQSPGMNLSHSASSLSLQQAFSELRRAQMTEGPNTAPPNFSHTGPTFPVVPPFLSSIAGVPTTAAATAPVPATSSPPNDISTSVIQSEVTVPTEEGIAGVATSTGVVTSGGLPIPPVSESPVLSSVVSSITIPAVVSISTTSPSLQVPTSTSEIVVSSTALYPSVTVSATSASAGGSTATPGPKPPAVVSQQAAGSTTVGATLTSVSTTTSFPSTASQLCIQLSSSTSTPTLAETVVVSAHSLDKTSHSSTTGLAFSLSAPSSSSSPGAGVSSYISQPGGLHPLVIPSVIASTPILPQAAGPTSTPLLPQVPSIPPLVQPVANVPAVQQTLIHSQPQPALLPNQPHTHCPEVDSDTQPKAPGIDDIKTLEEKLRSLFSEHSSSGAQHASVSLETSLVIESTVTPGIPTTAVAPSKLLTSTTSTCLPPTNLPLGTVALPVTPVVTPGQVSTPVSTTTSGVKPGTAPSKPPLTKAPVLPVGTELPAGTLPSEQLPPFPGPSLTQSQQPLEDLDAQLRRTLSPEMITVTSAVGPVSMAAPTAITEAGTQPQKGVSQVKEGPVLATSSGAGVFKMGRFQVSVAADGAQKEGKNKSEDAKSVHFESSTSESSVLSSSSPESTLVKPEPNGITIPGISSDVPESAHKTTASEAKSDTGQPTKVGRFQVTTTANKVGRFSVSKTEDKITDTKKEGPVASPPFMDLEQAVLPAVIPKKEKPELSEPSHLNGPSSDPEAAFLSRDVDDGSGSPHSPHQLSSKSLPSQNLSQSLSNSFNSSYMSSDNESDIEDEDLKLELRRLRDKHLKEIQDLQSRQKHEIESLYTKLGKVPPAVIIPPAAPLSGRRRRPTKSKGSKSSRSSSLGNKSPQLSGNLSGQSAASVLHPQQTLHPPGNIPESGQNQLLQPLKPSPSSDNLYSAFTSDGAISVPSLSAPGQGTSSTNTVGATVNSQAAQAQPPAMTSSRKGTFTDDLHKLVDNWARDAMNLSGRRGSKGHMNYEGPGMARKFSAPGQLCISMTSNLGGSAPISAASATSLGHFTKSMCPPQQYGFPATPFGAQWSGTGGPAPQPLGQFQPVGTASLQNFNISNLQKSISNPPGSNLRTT
UniProt Q9HAD4: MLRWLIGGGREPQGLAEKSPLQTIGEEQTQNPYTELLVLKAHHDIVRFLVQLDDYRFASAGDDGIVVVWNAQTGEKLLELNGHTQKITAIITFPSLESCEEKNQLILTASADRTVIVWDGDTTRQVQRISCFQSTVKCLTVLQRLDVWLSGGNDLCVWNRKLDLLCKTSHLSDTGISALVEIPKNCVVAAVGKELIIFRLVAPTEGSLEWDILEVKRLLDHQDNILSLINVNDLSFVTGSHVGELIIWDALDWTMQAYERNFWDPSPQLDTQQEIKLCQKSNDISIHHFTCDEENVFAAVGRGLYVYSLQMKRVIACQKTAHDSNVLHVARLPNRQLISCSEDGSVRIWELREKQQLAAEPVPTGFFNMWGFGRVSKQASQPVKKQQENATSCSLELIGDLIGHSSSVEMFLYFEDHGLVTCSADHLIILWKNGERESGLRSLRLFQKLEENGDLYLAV
UniProt Q64LD2: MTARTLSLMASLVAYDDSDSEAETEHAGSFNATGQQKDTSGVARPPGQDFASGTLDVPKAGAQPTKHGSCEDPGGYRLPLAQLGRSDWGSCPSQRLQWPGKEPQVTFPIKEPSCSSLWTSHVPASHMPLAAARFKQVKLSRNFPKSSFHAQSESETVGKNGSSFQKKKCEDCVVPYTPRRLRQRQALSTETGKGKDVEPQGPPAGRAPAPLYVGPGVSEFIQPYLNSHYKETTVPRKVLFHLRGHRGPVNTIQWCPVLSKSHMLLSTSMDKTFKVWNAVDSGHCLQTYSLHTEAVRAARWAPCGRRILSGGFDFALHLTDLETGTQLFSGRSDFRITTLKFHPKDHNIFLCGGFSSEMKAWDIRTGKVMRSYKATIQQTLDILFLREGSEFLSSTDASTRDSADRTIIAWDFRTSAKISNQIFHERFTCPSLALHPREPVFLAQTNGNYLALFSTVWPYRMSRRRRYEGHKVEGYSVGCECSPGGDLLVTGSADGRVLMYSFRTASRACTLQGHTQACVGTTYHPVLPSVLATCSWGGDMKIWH

Each target was assayed with CC1Cc2ccccc2N1C(=O)C1CCCN(C1)C(=O)CCl (mixture of isomers) [TRIM25 ligand 11 (diastereomer mixture)] (assay: probe-labelled cysteine peptide fold change vs DMSO (competition) (log2 fold change); higher = less target engagement (more negative = stronger competition)). Settings: 10 µM; THP-1; incubation time: 4 h.
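Note: competitive chemoproteomic profiling in live THP-1 cells with an iodoacetamide desthiobiotin (IA-DTB) probe, comparing probe-labelled peptide intensities in compound-treated cells against DMSO-treated controls.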

Target	probe-labelled cysteine peptide fold change
WDFY3_Q8IZQ1_1600_FGQFISSTLPTFAVCEK (UniProt Q8IZQ1)	-0.165
WDR91_A4D1P6_512_ILSLACSPNGASFVCSAAAPSLTSQVDFSAPDIGSK (UniProt A4D1P6)	-0.00541
WDFY4_Q6ZS81_2226_TEDFVSCIENYR (UniProt Q6ZS81)	-0.0499
WDFY1_Q8IWB7_189_LEQNTCSVITTLK (UniProt Q8IWB7)	0.462
WSB1_Q9Y6I7_262_KLEGHHHDVVACDFSPDGALLATASYDTR (UniProt Q9Y6I7)	-0.206
XPNPEP1_Q9NQW7_279_ALCADLSPR (UniProt Q9NQW7)	-0.0326
WDR82_Q6UXN9_195_TCEWTGLK (UniProt Q6UXN9)	0.0195
WAPL_Q7Z5K2_964_TGEQDGLIGTALNCVLQVPK (UniProt Q7Z5K2)	0.28
WDR43_Q15061_372_EPHMCLVR (UniProt Q15061)	-0.0214
WARS_P23381_225_DIIACGFDINK (UniProt P23381)	0.13
WDR75_Q8IWA0_546_HLCFGR (UniProt Q8IWA0)	0.115
WNK1_Q9H4A3_1135_VVECQLETHNRK (UniProt Q9H4A3)	0.137
WDR41_Q9HAD4_99_ITAIITFPSLESCEEK (UniProt Q9HAD4)	0.257
XAB2_Q9HCS7_86+98_CVTDPAYEDVNNCHER (UniProt Q9HCS7)	0.0663
WDR25_Q64LD2_429_FTCPSLALHPR (UniProt Q64LD2)	0.000846
WDR4_P57081_95_TKPWQCLSVR (UniProt P57081)	-0.0725

Quoted from the entries so far for reference:
Target	probe-labelled cysteine peptide fold change
WDR43_Q15061_372_EPHMCLVR (UniProt Q15061)	-0.0214
WARS_P23381_225_DIIACGFDINK (UniProt P23381)	0.13
